# From PubChem BioAssay (EPA / NIEHS)
# Amino acid sequences for entries named in this document (tags omitted). A change or cut given only in a name is not applied to a line headed by its entry.
# UniProt P27361, whole entry, looked up: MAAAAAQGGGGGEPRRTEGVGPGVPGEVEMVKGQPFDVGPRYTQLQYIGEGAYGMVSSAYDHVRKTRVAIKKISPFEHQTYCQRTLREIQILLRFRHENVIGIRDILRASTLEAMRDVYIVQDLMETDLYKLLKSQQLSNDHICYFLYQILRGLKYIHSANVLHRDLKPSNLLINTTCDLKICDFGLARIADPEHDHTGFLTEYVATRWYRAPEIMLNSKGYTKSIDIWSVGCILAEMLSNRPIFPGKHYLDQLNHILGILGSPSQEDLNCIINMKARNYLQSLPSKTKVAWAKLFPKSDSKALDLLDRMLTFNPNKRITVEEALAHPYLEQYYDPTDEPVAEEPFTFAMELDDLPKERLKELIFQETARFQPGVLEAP
# UniProt P37231: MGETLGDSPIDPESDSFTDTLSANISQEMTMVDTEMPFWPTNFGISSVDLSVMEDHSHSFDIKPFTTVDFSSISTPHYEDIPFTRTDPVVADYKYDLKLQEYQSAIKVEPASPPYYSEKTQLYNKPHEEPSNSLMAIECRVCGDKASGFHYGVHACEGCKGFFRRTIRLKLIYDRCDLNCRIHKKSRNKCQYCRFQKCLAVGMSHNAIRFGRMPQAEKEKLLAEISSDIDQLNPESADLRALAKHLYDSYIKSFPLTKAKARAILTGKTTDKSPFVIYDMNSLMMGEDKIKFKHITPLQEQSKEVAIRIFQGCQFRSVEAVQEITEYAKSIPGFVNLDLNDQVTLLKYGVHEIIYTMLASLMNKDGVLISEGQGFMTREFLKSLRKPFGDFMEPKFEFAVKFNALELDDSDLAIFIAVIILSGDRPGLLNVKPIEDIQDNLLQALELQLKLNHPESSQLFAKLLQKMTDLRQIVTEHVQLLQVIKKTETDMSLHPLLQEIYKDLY
# UniProt Q07869: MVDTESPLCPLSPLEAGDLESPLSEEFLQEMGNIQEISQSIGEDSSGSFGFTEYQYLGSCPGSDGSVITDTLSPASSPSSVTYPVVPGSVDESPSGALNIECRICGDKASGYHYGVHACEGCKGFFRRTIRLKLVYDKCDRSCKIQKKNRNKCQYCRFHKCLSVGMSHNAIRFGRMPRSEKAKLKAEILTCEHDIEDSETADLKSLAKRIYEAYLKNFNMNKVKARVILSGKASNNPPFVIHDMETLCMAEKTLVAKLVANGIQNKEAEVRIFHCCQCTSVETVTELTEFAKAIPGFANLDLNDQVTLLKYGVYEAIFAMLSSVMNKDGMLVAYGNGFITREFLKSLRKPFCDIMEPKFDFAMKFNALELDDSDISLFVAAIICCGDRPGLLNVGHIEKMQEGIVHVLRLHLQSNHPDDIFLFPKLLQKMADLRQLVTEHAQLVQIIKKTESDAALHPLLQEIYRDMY
# UniProt P30536, whole entry, looked up: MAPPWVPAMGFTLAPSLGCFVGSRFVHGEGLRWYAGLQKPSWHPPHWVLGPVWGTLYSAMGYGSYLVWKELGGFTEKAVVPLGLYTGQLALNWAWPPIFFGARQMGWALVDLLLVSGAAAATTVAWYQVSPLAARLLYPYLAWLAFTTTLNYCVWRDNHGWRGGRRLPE
# UniProt P06401: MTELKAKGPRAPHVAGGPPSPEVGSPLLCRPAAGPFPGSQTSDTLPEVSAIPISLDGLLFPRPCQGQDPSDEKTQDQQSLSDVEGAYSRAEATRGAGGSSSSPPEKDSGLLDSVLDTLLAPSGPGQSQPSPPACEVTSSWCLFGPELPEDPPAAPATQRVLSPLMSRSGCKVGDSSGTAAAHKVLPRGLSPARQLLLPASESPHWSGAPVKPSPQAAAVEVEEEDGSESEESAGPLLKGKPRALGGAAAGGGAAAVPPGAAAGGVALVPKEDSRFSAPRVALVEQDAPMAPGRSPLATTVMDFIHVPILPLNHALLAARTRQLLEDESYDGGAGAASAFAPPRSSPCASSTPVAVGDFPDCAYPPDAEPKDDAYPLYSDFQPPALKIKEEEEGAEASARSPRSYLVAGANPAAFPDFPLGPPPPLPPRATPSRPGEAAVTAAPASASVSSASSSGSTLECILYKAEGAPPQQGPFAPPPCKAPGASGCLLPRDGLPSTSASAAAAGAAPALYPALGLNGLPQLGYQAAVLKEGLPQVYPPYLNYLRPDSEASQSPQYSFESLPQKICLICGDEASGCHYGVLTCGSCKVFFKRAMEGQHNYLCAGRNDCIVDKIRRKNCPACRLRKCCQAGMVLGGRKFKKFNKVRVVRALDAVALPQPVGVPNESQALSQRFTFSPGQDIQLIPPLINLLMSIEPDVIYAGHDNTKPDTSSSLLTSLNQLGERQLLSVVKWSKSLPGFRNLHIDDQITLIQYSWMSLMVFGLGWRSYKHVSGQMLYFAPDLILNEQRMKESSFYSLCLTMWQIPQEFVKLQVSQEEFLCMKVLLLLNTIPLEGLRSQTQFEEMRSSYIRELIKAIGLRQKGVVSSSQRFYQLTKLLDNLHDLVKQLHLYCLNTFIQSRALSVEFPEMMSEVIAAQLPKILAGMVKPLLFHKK
# UniProt P43378: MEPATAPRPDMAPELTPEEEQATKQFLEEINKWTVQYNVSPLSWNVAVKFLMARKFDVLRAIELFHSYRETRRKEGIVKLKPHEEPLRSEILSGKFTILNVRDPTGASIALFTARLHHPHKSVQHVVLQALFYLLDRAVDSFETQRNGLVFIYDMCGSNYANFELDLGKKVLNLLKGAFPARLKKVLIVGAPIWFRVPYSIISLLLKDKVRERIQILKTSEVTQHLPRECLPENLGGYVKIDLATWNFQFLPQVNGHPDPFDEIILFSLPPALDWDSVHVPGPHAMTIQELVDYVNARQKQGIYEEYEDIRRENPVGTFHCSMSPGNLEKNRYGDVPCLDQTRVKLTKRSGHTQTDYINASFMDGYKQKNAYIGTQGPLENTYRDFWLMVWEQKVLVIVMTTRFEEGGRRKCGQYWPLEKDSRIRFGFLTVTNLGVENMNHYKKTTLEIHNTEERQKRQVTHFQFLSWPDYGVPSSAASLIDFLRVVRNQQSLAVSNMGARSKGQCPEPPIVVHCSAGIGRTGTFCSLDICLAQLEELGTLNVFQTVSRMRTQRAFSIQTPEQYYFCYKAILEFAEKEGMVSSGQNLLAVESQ
# UniProt Q14790: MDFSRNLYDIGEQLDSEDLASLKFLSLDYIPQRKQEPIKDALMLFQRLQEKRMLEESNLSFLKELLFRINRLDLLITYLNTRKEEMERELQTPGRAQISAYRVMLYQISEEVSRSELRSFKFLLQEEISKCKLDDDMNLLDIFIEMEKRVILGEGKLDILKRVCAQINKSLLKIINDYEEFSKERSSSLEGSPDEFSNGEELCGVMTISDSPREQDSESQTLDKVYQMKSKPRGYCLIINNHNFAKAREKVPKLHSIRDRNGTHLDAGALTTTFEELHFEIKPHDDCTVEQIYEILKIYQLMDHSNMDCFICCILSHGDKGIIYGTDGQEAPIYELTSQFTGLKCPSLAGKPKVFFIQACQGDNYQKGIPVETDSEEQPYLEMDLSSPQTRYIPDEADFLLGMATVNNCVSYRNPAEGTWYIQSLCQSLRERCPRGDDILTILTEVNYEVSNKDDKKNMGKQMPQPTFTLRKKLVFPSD
# UniProt P08684, whole entry, looked up: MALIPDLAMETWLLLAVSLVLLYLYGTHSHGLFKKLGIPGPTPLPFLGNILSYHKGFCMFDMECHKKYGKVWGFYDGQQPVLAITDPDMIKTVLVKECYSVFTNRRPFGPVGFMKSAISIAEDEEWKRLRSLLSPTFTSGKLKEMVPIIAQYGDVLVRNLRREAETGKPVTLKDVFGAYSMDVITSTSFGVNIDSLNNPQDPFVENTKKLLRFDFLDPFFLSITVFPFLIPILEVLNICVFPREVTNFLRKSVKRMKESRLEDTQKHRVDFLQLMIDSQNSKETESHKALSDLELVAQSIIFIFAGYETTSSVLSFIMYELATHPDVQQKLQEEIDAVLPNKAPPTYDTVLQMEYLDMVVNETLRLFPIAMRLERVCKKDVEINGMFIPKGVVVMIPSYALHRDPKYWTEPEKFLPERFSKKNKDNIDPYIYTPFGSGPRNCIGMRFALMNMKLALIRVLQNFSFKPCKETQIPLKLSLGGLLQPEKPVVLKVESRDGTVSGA
# UniProt P49841: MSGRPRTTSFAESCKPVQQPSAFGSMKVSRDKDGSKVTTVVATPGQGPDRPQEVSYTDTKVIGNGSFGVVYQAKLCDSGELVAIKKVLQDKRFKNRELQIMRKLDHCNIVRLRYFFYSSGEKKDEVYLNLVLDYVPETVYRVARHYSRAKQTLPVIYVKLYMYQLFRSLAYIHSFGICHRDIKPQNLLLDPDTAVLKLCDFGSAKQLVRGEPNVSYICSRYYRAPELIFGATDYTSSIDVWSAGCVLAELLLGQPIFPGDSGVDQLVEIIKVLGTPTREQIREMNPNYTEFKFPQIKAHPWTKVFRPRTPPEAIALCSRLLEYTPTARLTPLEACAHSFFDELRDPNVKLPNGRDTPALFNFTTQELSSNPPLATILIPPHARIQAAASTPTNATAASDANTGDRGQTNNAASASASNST
# The shares of active, inactive and inconclusive entries below differ from those in the screen. For some assays here: Potencies beside an inconclusive call are fits to weak or partial responses and may not hold up. Active and inactive are the calls of the source. How the source made its calls: active means hit-call score of the fitted dose curve at least 0.9, where 1 is the maximum; inconclusive means response in the unintended direction; inactive means score below 0.9.
# Experiments:
# [1] = target: Mitogen-activated protein kinase 3 (Homo sapiens) (UniProt P27361); experiment: NVS_ENZ_hMAPK3: NovaScreen (NVS) Enzymatic Assay for human Mitogen-Activated Protein Kinase 3 (MAPK 3) (AID 2283177)
# Procedure, shortened: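 Chemicals were first tested in duplicate at 25 uM, with hits re-run as concentration series (max 50 uM). Recombinant enzyme activity, measured 1 h post-dose in a cell-free format, was read by fluorescence/mobility shift relative to DMSO.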
# [2] = Tanguay_ZF_120hpf_YSE_legacy: (Legacy) Oregon State University Tanguay Lab 120 Hour Post-fertilization zebrafish Assay for Yolk Sac Edema (AID 2283634);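 further: actives raise the incidence of yolk sac edema above the DMSO baseline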
# Procedure, shortened: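 Binary brightfield scoring of yolk sac edema at 120 hpf; DMSO baseline, gain-of-signal fitting. Dechorionated 5D larvae, one per well, static exposure 6–120 hpf, 28C, 0.64% DMSO. Dead embryos not scored.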
# [3] = CCTE_Simmons_CellTiterGLO_HEK293T: Viability Assessment in CCTE's Assays for Thyroperoxidase (TPO) Inhibition, Simmons Lab (AID 2283665);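 on AC50: cells exposed to compound for 24 h before readout; actives reduce ATP signal below DMSO vehicle meaning cytotoxicity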
# Procedure, shortened: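 Cells were seeded overnight, then exposed to an eight-point series up to 87.5 uM final for 24 hours. CellTiter-Glo reagent was added and luminescence read after 20 min, giving ATP-based viability versus DMSO.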
# [4] = target: Peroxisome proliferator-activated receptor gamma (Homo sapiens) (UniProt P37231); experiment: OT_PPARg_PPARgSRC1_0480: Odyssey Thera (OT) 8-hour Protein-Complementation Assay for Peroxisome Proliferator-activated Receptor Gamma / SRC-1 Co-activator (AID 2283387);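 further: nuclear to cytoplasmic split Venus YFP fluorescence ratio reporting PPARg SRC-1 interaction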
# Procedure, shortened: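 Protein-fragment complementation of split Venus YFP reports PPARg/SRC-1 interaction in HEK293T (transfected 48 h before treatment), exposed 8 h. Readout: N/C fluorescence ratio at 488 nm from imaging, Draq5 for segmentation, positive fit relative to DMSO.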
# [5] = target: human Peroxisome Proliferator-activated Receptor alpha (PPARa), PPARA (gene 5465) (UniProt Q07869); experiment: NVS_NR_hPPARa: NovaScreen (NVS) Nuclear Receptor Binding Assay for human Peroxisome Proliferator-activated Receptor alpha (PPARa) (AID 2283359);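 further: activity means loss of TR-FRET signal versus DMSO baseline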
# Procedure, shortened: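 One-hour incubation, cell-free extracted protein, TR-FRET binding readout; signal loss vs DMSO scored. Screen: 25 uM duplicates, confirmatory dose series for actives.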
# [6] = target: human Peripheral-type Benzodiazepine Receptor (PBR), TSPO (gene 706) (UniProt P30536); experiment: NVS_MP_hPBR: NovaScreen (NVS) Membrane Protein Assay for human Peripheral-type Benzodiazepine Receptor (PBR) (AID 2283331);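 further: hits reduce radioligand binding relative to DMSO baseline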
# Procedure, shortened: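 Using human colon-derived membranes, this one-endpoint binding test reads radioligand loss by scintillation after 1 h. Screening started at 25 uM in duplicate, with positive and negative controls on every plate, and actives moved to dose series.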
# PGR (gene 5241) = PGR (gene 5241) (UniProt P06401); experiment: NVS_NR_hPR: NovaScreen (NVS) Nuclear Receptor Binding Assay for human Progestron Receptor (PR) (AID 2283360);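 further: active means loss of bound radioligand signal versus DMSO baseline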
# Procedure, shortened: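 T47D-derived receptor preparation, cell-free, with tritiated or iodinated radioligand displacement measured by scintillation 18 h post-dosing. Single 25 uM duplicate screen, then concentration series; signal loss relative to DMSO.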
# [7] = IUF_NPC4_neurite_area_120hr: Leibniz Research Institute for Environmental Medicine (IUF) 120-hour Neuronal Morphology Assay for Neurite Area (NPC4) (AID 2284305)
# Procedure, shortened: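 Endpoint at 120 h: automated imaging of TUBB3/Hoechst-stained differentiating human neural progenitor spheres, neurite area per neuron from skeletonization. DMSO solvent control, not above 0.1%, set the baseline; medium was half-replaced on day 3.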
# [8] = target: human Protein Tyrosine Phosphatase Non-receptor Type 9 (PTPN9), PTPN9 (gene 5780) (UniProt P43378); experiment: NVS_ENZ_hPTPN9: NovaScreen (NVS) Enzymatic Assay for human Protein Tyrosine Phosphatase Non-receptor Type 9 (PTPN9) (AID 2283209)
# Procedure, shortened: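 Sf9-expressed enzyme in a cell-free assay, fluorescence read 1.33 h after dosing with mobility-shift separation of substrate and product. Tested at 25 uM in duplicate, then up to 50 uM; signal loss versus DMSO.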
# [9] = target: human Caspase 8 (CASP8), CASP8 (gene 841) (UniProt Q14790); experiment: NVS_ENZ_hCASP8: NovaScreen (NVS) Enzymatic Assay for human Caspase 8 (CASP8) (AID 2283146)
# Procedure, shortened: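 The primary screen tested compounds in duplicate at a single 25 uM concentration, with actives followed up in concentration series. Activity of recombinant (E. coli) protease was measured by fluorescence 1 h post-dose, as signal loss against DMSO.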
# [10] = STM_H9_NormalizedViability: Cytotoxicity Assessment at 120 hours in the Stemina devTOX quickPredict H9 human embryonic stem cell (hESC)-based Assay (AID 2283784)
# Procedure, shortened: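 Viability of the cell layer was taken from live-cell protease cleavage of a fluorogenic substrate after compound exposure of undifferentiated H9 stem cells, with replenishment each 24h. Fluorescence was normalized to vehicle (0.1% DMSO).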
# [11] = target: Cytochrome P450 3A4 (Homo sapiens) (UniProt P08684); experiment: NVS_ADME_hCYP3A4: NovaScreen (NVS) CYP450-related Enzyme Activity (ADME) Assay for human CYP3A4 (AID 2283110)
# Procedure, shortened: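 Activity is derived from decreased fluorescence intensity relative to acetonitrile, measured 0.33 hour after dosing insect-cell-expressed CYP3A4 in a cell-free format. Screening used 10 uM in duplicate before concentration-response follow-up.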
# [12] = target: Glycogen synthase kinase-3 beta (Homo sapiens) (UniProt P49841); experiment: NVS_ENZ_hGSK3b: NovaScreen (NVS) Enzymatic Assay for human Glycogen Synthase Kinase-3 beta (GSK3b) (AID 2283165)
# Procedure, shortened: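 Recombinant enzyme with specific fluorescent substrate, 1 h, product separated by electrophoretic mobility shift. Primary duplicate screen at 25 uM; actives (e.g. 30% inhibition) followed in singleton concentration-response to 50 uM. Signal loss fitted versus DMSO.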
structure (smiles),measurement,setting,value
CCNC(=O)NC(=O)C(C#N)=NOC,AC50,[1],inconclusive: 25 µM
same,AC50,[2],active: 37.8 µM
same,AC50,[3],inconclusive: 53.6 µM
CNc1cnn(-c2cccc(C(F)(F)F)c2)c(=O)c1Cl,outcome,[4],inactive
O=C(CCl)c1ccccc1,AC50,[5],inconclusive: 5.63 µM
CC(C)N(C(=O)SCC(Cl)=C(Cl)Cl)C(C)C,AC50,[1],inconclusive: 25 µM
same,AC50,[6],inconclusive: 98.2 nM
same,AC50,PGR (gene 5241),inconclusive: 25 µM
same,AC50,[7],inconclusive: 0.00332 µM
OCC1CO1 (stereo not given),outcome,[8],inactive
Fc1ccc(Oc2ccnc3cc(Cl)cc(Cl)c23)cc1,outcome,[9],inactive
O=C(O)COc1ccc(Cl)cc1Cl,AC50,PGR (gene 5241),inconclusive: 7.6 µM
same,AC50,[7],inconclusive: 9.94 µM
CCOP(=S)(OCC)Oc1ccc2c(C)c(Cl)c(=O)oc2c1,outcome,[3],inactive
same,AC50,[10],inconclusive: 11.3 µM
CCOC(=O)CC(SP(=O)(OC)OC)C(=O)OCC (stereo not given),outcome,[11],inactive
same,outcome,PGR (gene 5241),inactive
CCCC(=NOCC)C1=C(O)CC(CC(C)SCC)CC1=O (stereo not given),AC50,[12],inconclusive: 76.9 nM
same,AC50,[8],active: 42.2 µM
Nc1nc(N)nc(NC2CC2)n1,outcome,[9],inactive

# Random excerpt: 2 entries already listed.
structure (smiles),measurement,setting,value
CCNC(=O)NC(=O)C(C#N)=NOC,AC50,[2],active: 37.8 µM
O=C(O)COc1ccc(Cl)cc1Cl,AC50,[7],inconclusive: 9.94 µM
